Substitutions are numbered along the chain they refer to. No constants are given. Whether binding was seen depends on the method and setting. In cells and extracts the contact can be indirect. A result given as binding can be weak or reduced; the word gives no strength.

In one test the target is T1, LAP-Rab34-L61D (human) (UniProt Q9BZG1).
T1 sequence: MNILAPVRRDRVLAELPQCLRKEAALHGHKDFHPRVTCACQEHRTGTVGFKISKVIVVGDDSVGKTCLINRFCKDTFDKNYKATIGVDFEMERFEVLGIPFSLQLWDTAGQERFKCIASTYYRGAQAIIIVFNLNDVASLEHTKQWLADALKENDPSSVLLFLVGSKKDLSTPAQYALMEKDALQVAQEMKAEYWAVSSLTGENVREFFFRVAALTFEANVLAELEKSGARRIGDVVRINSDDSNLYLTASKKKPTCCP
Briefly: co-IP.

In the next test the target is T2, LAP-Rab34-S166N (human) (UniProt Q9BZG1).
T2 sequence: T1 sequence with D61L, S166N
As to the kind of experiment: co-IP.

Take “Rab-GDI (human (endogenous in HEK-293T))”: the binding result with LAP-Rab34-L61D (human) and in the test with LAP-Rab34-S166N (human) was “binds” each time.

Source of the values: article doi:10.1101/2020.10.29.360891.
